Source: patent US20150241442A1
No constants are given. Whether binding was seen depends on the method and setting. Binding seen in cells or lysates may run through a third protein. Some binding calls cover weakened binding; strength is not graded here.

The chains behind the UniProt entries cited, without tags or fusion partners. Residues count along the entry.
UniProt P05107, residues 23-769: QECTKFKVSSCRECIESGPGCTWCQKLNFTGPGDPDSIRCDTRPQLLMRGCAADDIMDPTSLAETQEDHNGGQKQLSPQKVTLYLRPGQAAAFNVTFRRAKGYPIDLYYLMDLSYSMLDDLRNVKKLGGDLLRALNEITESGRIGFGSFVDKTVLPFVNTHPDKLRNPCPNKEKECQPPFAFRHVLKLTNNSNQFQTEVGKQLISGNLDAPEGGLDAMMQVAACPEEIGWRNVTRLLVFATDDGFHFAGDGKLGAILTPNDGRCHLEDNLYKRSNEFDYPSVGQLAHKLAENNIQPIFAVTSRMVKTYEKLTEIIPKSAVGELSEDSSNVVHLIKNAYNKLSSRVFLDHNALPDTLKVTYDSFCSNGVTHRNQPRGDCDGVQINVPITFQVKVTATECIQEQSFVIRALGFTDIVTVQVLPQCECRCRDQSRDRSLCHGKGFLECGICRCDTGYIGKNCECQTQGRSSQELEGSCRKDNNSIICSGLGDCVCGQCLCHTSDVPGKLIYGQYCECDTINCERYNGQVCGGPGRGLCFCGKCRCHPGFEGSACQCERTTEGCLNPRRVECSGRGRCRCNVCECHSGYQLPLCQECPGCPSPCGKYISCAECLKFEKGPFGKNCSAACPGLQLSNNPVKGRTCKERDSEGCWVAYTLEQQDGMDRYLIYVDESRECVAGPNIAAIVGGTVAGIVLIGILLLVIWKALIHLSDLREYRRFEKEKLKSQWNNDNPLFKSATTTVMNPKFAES
UniProt Q14289: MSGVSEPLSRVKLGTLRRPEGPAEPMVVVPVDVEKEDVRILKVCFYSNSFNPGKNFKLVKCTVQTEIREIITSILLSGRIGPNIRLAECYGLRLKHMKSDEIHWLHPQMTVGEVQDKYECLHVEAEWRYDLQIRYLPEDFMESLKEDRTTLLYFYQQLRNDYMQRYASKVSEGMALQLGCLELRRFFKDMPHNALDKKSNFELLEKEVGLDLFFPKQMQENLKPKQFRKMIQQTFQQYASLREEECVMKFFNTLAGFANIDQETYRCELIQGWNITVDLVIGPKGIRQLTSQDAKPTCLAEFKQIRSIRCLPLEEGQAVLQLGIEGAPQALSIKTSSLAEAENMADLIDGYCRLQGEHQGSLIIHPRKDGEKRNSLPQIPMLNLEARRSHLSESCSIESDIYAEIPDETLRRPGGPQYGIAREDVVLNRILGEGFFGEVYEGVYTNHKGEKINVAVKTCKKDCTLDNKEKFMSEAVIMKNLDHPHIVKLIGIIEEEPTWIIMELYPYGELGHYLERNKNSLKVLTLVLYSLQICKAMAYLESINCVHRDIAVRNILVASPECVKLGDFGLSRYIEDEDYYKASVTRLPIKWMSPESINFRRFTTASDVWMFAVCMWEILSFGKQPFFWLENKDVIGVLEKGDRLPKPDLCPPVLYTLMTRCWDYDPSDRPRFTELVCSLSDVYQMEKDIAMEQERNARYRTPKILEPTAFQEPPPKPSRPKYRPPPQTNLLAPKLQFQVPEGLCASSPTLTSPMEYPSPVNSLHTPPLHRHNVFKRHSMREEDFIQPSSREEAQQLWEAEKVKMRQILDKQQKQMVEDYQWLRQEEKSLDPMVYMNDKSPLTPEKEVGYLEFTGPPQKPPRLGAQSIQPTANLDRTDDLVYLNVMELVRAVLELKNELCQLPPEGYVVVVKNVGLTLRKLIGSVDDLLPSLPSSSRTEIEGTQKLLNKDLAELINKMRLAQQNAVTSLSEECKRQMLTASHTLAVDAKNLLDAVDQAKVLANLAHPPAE

Assays:
[1] = target: β2 integrin (LFA-1 subunit, Jurkat cells) (human (Jurkat T cells)) (UniProt P05107); assay: co-immunoprecipitation from Jurkat cells (FIG. 36B)
[2] = target: β2 integrin (LFA-1 subunit, Jurkat cells) (human (Jurkat T cells)) (UniProt P05107); assay: co-immunoprecipitation (FIG. 16B)
[3] = target: β2 integrin (LFA-1 subunit, Jurkat cells) (human (Jurkat T cells)) (UniProt P05107); assay: co-immunoprecipitation (FIG. 36B)
[4] = target: β2 integrin (LFA-1 subunit, Jurkat cells) (human (Jurkat T cells)) (UniProt P05107); assay: co-immunoprecipitation from Jurkat cells (FIG. 16B)
[5] = target: β2 integrin (LFA-1 subunit, Jurkat cells) (human (Jurkat T cells)) (UniProt P05107); assay: reciprocal co-immunoprecipitation from Jurkat cells (FIG. 16B)

Measured: binding

proline-rich tyrosine kinase 2 (PYK2) (from UniProt Q14289 1-1009) (enzyme)
binds: all assays above
